Assay results as given in patent US20240383974A1.
Where a chain is given by its changes, count along the chain named. These are yes or no findings as the source states them, for the method shown. Some results given as binding are weak or reduced against the parent protein; the word gives no strength.

Sequences of proteins named here, by UniProt entry; tags and fusion partners are left off. A change or cut given only in a name is not applied to a line headed by its entry. A line that says so, or that is headed by a name, gives the form on record, which may keep a tag or linker. Residues count along the entry.
UniProt Q9NZQ7, residues 19-290: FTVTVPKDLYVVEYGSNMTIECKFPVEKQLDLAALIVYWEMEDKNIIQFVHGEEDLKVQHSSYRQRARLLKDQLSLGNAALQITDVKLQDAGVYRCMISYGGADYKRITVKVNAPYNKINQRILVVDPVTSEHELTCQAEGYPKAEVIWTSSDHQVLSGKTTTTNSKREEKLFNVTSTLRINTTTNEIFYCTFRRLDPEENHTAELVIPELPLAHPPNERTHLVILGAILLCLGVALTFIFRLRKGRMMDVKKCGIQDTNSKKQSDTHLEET
cynomolgus monkey PD-L1 (G7PSE7, form named): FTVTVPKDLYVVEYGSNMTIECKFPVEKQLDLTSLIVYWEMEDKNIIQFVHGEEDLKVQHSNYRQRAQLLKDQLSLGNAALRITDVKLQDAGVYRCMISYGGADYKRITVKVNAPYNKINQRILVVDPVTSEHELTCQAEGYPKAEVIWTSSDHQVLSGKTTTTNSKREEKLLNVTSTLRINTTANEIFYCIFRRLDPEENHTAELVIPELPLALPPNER
UniProt Q14392, residues 20-662: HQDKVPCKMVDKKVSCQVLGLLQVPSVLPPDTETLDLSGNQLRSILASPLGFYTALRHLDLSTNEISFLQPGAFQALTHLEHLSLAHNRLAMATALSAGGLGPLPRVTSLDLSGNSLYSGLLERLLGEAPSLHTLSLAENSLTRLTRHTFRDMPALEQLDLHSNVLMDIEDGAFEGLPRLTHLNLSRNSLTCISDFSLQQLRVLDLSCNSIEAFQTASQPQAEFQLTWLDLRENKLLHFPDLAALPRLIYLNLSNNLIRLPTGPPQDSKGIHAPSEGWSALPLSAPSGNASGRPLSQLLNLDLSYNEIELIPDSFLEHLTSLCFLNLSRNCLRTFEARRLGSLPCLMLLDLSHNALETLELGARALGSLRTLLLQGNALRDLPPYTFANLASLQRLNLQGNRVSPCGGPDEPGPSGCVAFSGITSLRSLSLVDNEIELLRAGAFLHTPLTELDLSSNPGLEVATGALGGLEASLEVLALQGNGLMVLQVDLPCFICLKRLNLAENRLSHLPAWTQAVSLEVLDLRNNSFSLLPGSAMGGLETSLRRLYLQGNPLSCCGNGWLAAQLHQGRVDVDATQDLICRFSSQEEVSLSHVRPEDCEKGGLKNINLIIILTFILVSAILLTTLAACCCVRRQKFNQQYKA
UniProt P01137, residues 279-390: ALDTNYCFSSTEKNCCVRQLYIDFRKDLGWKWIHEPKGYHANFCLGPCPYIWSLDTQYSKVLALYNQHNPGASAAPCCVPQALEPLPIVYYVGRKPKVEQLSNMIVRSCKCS

B1: antibody B (VHH)
VHH: QVQLVESGGGLVQPGGSLSLSCVASGFTFSSYAMRWVRQAPGKEPEWVAGINTGSEIVVYANSVRGRFAISRDNARDTLFLQMNSLKPEDTAVYYCATGLVSAEHDGIWGQGTQVTVSS
B2: antibody Bhu (VHH)
VHH: B1 VHH with L11V, S19R, V23A, E44G, P45L, A69T, A75S, F80Y, K87R, P88A
B3: antibody A (VHH)
VHH: QVQLVESGGGLVQAGGSLRLSCAASGRSFSSSGMGWFRQAPGKDREFVATINSSGGDTYYRDSVEGRFTTSRDNAKNTMSLQMNDLKPEDTAVYYCAAKEGGGPSSIPAIYDYWGQGTQVTVSS
B4: antibody E (VHH)
VHH: B3 VHH with R61A, Y111F
B5: antibody Ahu (VHH)
VHH: B3 VHH with L11V, A14P, D44G, A75S, S80Y, D85S, K87R, P88A, Q119L
B6: antibody D2hu (VHH)
VHH: EVQLVESGGGLVQPGGSLRLSCAASGRDFLTYGMGWFRQAPGKGLEFVASINWSGSMTYYADSVKGRFTISRDNAKNSVYLQMNSLRAEDTAVYICAARRGAVTYASSNEYEHWGQGTQVTVSS
B7: antibody C (VHH)
VHH: B6 VHH with L11S, P14T, A23V, G44E, L45R, S78T, R87K, A88P, E89G
B8: antibody Chu (VHH)
VHH: B6 VHH with L45R, S78T, R87K, Q119L
B9: antibody D1hu (VHH)
VHH: B6 VHH with A23T, G44E, S78T
B10: antibody D (VHH)
VHH: B6 VHH with P14A, G16D, A23T, G44E, L45R, S78T, R87K, A88P, E89G
B11: antibody m305 (antibody, V domains shown)
VH: EVQLQQSGPELVKPGASVKIPCKTSGYTFTDYNMNWVKQSHGKSLEWIGDINPYSGGTIYNQKFKGKAILTVDKSSSTAYMELRSLTSEDTGIYYCARVSKGSGDYWGQGTTLTVSS
VL: DIQMTQSPSSLSASLGERVSLTCRASQEISGYLSWLQQKPDGTIKRLIYAASTLDSGVPKRFSGSRSGSDYSLTISSLESEDFADYYCLQYASYPTCTFGGGTKLEIK
B12: antibody m107 (antibody, V domains shown)
VH: QVHLQQSGAALARPGASVKMSCKASGYTFSAYTIHWVKQRPGQGLEWIGYINPSNDFAKYIQKFKDKATLTADKSSSTAYMQLNSLTSEDSAIYYCARVDYYGGSYRWYLDVWGAGTTVTVSS
VL: DIVLTQSPATLSVTPGDSVSLSCRASQSISNNLHWYQQKSHESPRLLIKYTSQSISGIPSRFSGSGSGTDFTLSINSVETEDFGMYFCQQSNSWPIFTFGSGTKLEIK
B13: antibody m212 (antibody, V domains shown)
VH: QVQLQQPGPELVKPGASVKLTCKASGYIFTSYWMHWVKRGPGRGLEWIGRIAPNSGGAHYHEKFKTKVTLTVDKPSSTAYMEFSSLTSEDSAVYYCARGNYGMDYWGQGTAVTVSS
VL: DIQMTQTTSSLSASLGDRVTISCRASQDISNYLNWYQQKPDGTVELLIYYTSTLHSGVPSRFSGSGSGTDYSLTISNLEQEDIATYFCQQVNTLPFTFGSGTKLEII
B14: antibody m305-hu (antibody, V domains shown)
VH: QVQLVQSGAEVKKPGASVKVSCKTSGYTFTDYNMNWVKQAPGQGLEWIGDINPYSGGTIYNQKFKGRATLTTDTSTSTAYMELRSLRSDDTAVYYCARVSKGSGDYWGQGTLVTVSS
VL: DIQMTQSPSSLSASVGDRVTITCRASQEISGYLSWLQQKPGGAPKRLIYAASTLDSGVPSRFSGSRSGTDYTLTISSLQPEDFATYYCLQYASYPTCTFGGGTKVEIK
B15: antibody m212-hu (antibody, V domains shown)
VH: QVQLVQSGAEVKKPGSSVKVSCKASGYIFTSYWMHWVKQAPGQGLEWIGRIAPNSGGAHYHEKFKTKVTITADKSTSTAYMEFSSLRSEDTAVYYCARGNYGMDYWGQGTAVTVSS
VL: DIQMTQSPSSLSASVGDRVTITCRASQDISNYLNWYQQKPGGAPELLIYYTSTLHSGVPSRFSGSGSGTDYTLTISSLQPEDFATYFCQQVNTLPFTFGSGTKLEIK
B16: antibody m109-hu (antibody, V domains shown)
VH: EVQLVESGGGLVQPGGSLRLSCATSGFTFSDYYMYWVRQTPEKRLEWVAYISNGGGRTYYPDTVKGRFTISRDNAKNSLYLQMSRLRAEDTAVYYCARQKTNYGNYEEDYYAMGYWGQGTSVTVSS
VL: DIVLTQSPASLAVSLGQRATITCRASKSVSTSGYSYIHWYQQKPGQPPKLLIYLASNLESGVPARFSGSGSGTDFTLTINPVEEEDAATYYCQHSRELPLTFGAGTKLEIK
B17: antibody m109 (antibody, V domains shown)
VH: B16 VH with Q3K, R19K, S78T, R87K, A88S, T91R, V93I
VL: B16 VL with T22S, T78N, N80H, E109D, I110L
B18: antibody m202-hu (antibody, V domains shown)
VH: QVQLVQSGAEVKKPGASVKVSCKASGYTFTSYWMHWVKQAPGQGLEWIGNINPSNGDTNYNEKFKSKATLTVDKSTSTAYMELRSLRSDDTAVYYCARATYGSYGYFDVWGQGTLVTVSS
VL: DIVLTQSPDSLAVSLGERATINCRASESVTIIGTNLIQWFQQKPGQPPKLLIYHASNLETGVPDRFSGSGSRTDFTLTISSLQAEDVAVYYCLQSRQIPRTFGGGTKVEIK
B19: antibody m301 (antibody, V domains shown)
VH: QVQLKESGPGLVAPSQSLSITCTVSGFSLTTYGVTWVRQPPGKGLQWLGLIWGDGTTDYHSTFISRLSISKDKSKNQVFFKLNSLQTDDTATYYCASYYFAMHYWGQGTSVTVSS
VL: DIVMSQSPSSLAVSAGEKVTMNCKSSQSLLNSRTQKNYLAWYQQKPGQSPKLLIYWASTRESGVPDRFTGSGSGTDFTLTIISVQAEDLAVYYCKQSYNLWTFGGGTKLEIK
B20: antibody m202 (antibody, V domains shown)
VH: QVQLQQPGTELVKPGASVKLSCKASGYTFTSYWMHWVKQRPGQGLEWIGNINPSNGDTNYNEKFKSKATLTVDKSSSTAYMQLSSLTSDDSAVYYCARATYGSYGYFDVWGTGTAVTVSS
VL: DIVLTQSPASLAMSLGKRATISCRASESVTIIGTNLIQWFQQKPGQPPKLLIYHASNLETGVPARFSGSGSRTDFTLTIDPVEEDDVAIYYCLQSRQIPRTFGGGTKLEIK
B21: antibody m107-hu (antibody, V domains shown)
VH: QVQLVQSGAEVKRPGASVKVSCKASGYTFSAYTIHWVKQRPGQGLEWIGYINPSNDFAKYIQKFKDKVTITADKSTSTAYMELNSLRSEDTAVYYCARVDYYGGSYRWYLDVWGQGTTVTVSS
VL: DIVLTQSPATLSLSPGERATLSCRASQSISNNLHWYQQKPGEAPRLLIKYTSQSISGIPARFSGSGSGTDFTLTISSLEPEDFAVYFCQQSNSWPIFTFGQGTKLEIK
B22: antibody m301-hu (antibody, V domains shown)
VH: QVQLQESGPGLVKPSGTLSLTCAVSGFSLTTYGVTWVRQPPGKGLEWIGLIWGDGTTDYHSTFISRLTISKDKSKNQVSLKLSSVTAADTAVYYCASYYFAMHYWGQGTLVTVSS
VL: DIVMTQSPDSLAVSLGERATINCKSSQSLLNSRTQKNYLAWYQQKPGQSPKLLIYWASTRESGVPDRFSGSGSGTDFTLTISSLQAEDVAVYYCKQSYNLWTFGGGTKVEIK

What follows are binders tested against human PD-L1 (human) (UniProt Q9NZQ7) (assay: FACS and ELISA).

binding, binds:
B1, B2, B3, B4, B5, B6, B7, B8, B9, B10

What follows are binders tested against cynomolgus monkey PD-L1 (cynomolgus monkey) (UniProt G7PSE7) (assay: FACS and ELISA).

binding, binds:
B1, B2, B3, B4, B5, B6, B7, B8, B9, B10

The binders below were run against GARP (CHO-K1-GARP cell line that overexpresses GARP) (UniProt Q14392) (assay: FACS on CHO-K1-GARP cells).

binding, binds:
B11, B12, B13, B14, B15

These binders were tested against GARP-TGF-β complex (293-GARP/TGFβ stably transfected cells) (UniProt Q14392) (assay: FACS on 293-GARP/TGFβ cells).

binding, binds:
B11, B12, B16, B17, B18, B13, B14, B19, B20, B21, B15, B22

What follows are binders tested against human PD-L1 (human) (UniProt Q9NZQ7) (assay: FACS on MDA-MB-231 cells (endogenous PD-L1)).

binding, binds:
B1, B3, B4, B7, B10

These binders were tested against human transforming growth factor β1 (human) (UniProt P01137) (assay: ELISA, plate-coated hTGF-β1).

binding, binds:
B16, B17, B18, B19, B20, B21, B22
